Measured values reported in patent publication US20170189376A1, “BUTYROYLOXYMETHYL DIETHYL PHOSPHATE COMPOUNDS AND USES THEREOF” (MOR RESEARCH APPLICATIONS LTD., priority 2016, published 2017).
Where two headings read alike, the source gives them in different places.

Legend:
Hut78 cells [1] = test: cells; assay type: cell-based; settings: Homo sapiens
MyLa cells = test: MTT-based viability assay, MyLa cells; settings: Homo sapiens, 72 h
Hut78 cells [2] = test: MTT-based viability assay, Hut78 cells; settings: Homo sapiens, HuT78, 72 h
[3] = system: Sezary syndrome Peripheral blood lymphocytes SPBL; test: MTT-based viability assay, Sezary PBL (SPBL); settings: Homo sapiens, Lymphocyte, 72 h
NPBL = test: MTT-based viability assay, normal PBL (NPBL); settings: Homo sapiens, 72 h
[4] = read-out: IC50 single treatment (HDACI)

Structure (SMILES): O=C(CCCCCCC(=O)Nc1ccccc1)NO [SAHA, Suberoylanilide hydroxamic acid, reference compound]
- IC50 (Hut78 cells [1]; HuT78, 24 h, read-out: IC50 Long exposure): 2400 ± 80 nM
- IC50 (Hut78 cells [1]; HuT78, read-out: IC50 Short exposure): 41000 ± 1000 nM
- IC50 (MyLa cells): 4300 ± 180 nM
- IC50 (Hut78 cells [2]): 700 ± 50 nM
- IC50 (Hut78 cells [2]; [4]): 500 nM
- IC50 [3]: 2960 nM
- IC50 [3, 4]: 2960 ± 740 nM
- IC50 (NPBL): 2100 ± 100 nM
- IC50 (NPBL; [4]): 2840 ± 650 nM
